Results reported in the supplement of paper PMC12823440, “Inhibitors supercharge kinase turnover through native proteolytic circuits” (Nature, 2025).
Structures can show the parent of a compound that is named as a salt. The list shows a part of the results. The calls rarely recur for the same compound in another form.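 Kinases, fused to nanoluciferase, were expressed in K562 cells; luminescence was measured every 4 h from 2 to 18 h as percent of control (DMSO = 100%, positive control = 0%). A time point is decreased if signal falls significantly (2 sigma). Hits were called by the authors by a rule that is not shown; the count of time points alone does not decide it.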

By UniProt entry, the sequences of proteins in these tests, tags left out. Where a name states a change or a piece, a line headed by the entry shows the natural chain unless it says otherwise.
UniProt P51813: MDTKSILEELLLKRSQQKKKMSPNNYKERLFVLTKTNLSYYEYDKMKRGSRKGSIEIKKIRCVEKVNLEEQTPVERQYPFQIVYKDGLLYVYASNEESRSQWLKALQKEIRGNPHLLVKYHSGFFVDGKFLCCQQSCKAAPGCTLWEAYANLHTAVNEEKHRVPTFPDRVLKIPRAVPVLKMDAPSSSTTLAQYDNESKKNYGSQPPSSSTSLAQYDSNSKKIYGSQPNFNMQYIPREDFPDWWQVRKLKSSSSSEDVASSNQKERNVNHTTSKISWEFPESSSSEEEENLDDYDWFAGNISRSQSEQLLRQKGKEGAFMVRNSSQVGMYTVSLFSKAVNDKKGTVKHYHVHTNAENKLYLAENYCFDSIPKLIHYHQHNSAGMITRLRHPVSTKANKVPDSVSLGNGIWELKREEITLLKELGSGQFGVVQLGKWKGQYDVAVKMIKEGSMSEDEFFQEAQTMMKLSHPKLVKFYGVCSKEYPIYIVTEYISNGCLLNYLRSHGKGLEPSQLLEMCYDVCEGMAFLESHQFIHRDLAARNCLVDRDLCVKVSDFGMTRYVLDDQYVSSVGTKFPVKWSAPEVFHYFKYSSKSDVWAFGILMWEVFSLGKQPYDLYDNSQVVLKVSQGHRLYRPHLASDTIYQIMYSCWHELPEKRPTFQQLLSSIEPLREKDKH

These compounds were tested against BMX (UniProt P51813) (assay: kinase-Nluc reporter destabilization hit call (1 = scored as downregulated) (binary); higher = compound decreases kinase abundance). Conditions: K562; 2-18 h.

kinase-Nluc reporter destabilization hit call, inactive:
O=c1cc(O)cc(/C=C/c2ccc(O)c(O)c2)o1 [Hispidin] (10 µM) 0
CC1CN(C(=O)Nc2ccc(Cl)c(Cl)c2)C(=Nc2ccc(F)cc2)S1 (stereo not given) (10 µM) 0
COc1cc2c[n+](C)c3c4cc5c(cc4ccc3c2cc1OC)OCO5 [Nitidine (chloride)] (2 µM) 0
Cc1c(CN2CCN(S(C)(=O)=O)CC2)sc2c(N3CCOCC3)nc(-c3cnc(N)nc3)nc12 (2.5 µM) 0
Cc1cc([C@H](C)Nc2ccccc2)c2oc(N3CCOCC3)cc(=O)c2c1 (10 µM) 0
O=C(CNC(=O)c1ccc(-c2ccccc2)cc1)NC1CCCc2ccccc21 (stereo not given) [TAO Kinase inhibitor 1] (10 µM) 0
Cn1cc(-c2ccc(CNc3cc(-c4cnc5cc(OCCCN6CCCC6)ccn45)ncn3)cc2)cn1 (10 µM) 0
Cc1ccc(S(=O)(=O)Nc2ccccc2C=Nc2ccccc2NS(=O)(=O)c2ccc(C)cc2)cc1 (10 µM) 0
O=C(/C=C/c1ccc(O)c(O)c1)c1ccc(O[C@@H]2O[C@H](CO)[C@@H](O)[C@H](O)[C@H]2O)c(O)c1O [Marein] (10 µM) 0
O=C(NCCCNc1nc(Nc2cccc(NC(=O)N3CCCC3)c2)ncc1I)c1cccs1 (2.5 µM) 0
CN(CCNc1ccc2ncc(-c3ccc(C(N)=O)cc3)n2n1)C(=O)OC(C)(C)C (10 µM) 0
C=C(C)C(=O)Nc1cccc(-c2ncnc3[nH]cc(C(=O)OCC)c23)c1 (10 µM) 0
COc1ccc(C(=C2C(=O)Nc3ccccc32)c2ccc(OC)cc2)cc1 (10 µM) 0
CN1CCN(c2ccc(C(=O)Nc3cc(-c4cccc(NS(=O)(=O)c5ccccc5)c4)[nH]n3)cc2)CC1 [BPR1J-097 Hydrochloride] (2.5 µM) 0
C=CC(=O)Nc1cc2c(Nc3ccc(OCc4ccccn4)c(Cl)c3)ncnc2cc1OCCN1CCOCC1 (10 µM) 0
Cc1c(NC(=O)OC[C@@H]2COCCN2)cn2ncnc(Nc3ccc4c(cnn4Cc4cccc(F)c4)c3)c12 (10 µM) 0
CNc1nc(Nc2cnn(C3CCN(C4COC4)CC3F)c2Cl)ncc1C(F)(F)F (stereo not given) (10 µM) 0
O=C(NCCO)c1ccc2c(c1)nc(Nc1cccc(Cl)c1)c1ccncc12 [CK2 inhibitor 2] (10 µM) 0
N#CC(c1ccnc(NCCc2cccnc2)n1)c1nc2ccccc2s1 (stereo not given) (10 µM) 0
CCN(CC)S(=O)(=O)c1ccc(OC)c(N2CCN(C(=O)c3ccc(F)cc3C(F)(F)F)CC2)c1 (10 µM) 0
CO[C@H]1C[C@@H]2CC[C@@H](C)[C@@](O)(O2)C(=O)C(=O)N2CCCC[C@H]2C(=O)O[C@H]([C@H](C)C[C@@H]2CC[C@@H](O)[C@H](OC)C2)CC(=O)[C@H](C)/C=C(\C)[C@@H](O)[C@@H](OC)C(=O)[C@H](C)C[C@H](C)/C=C/C=C/C=C/1C [Rapamycin] (10 µM) 0
CN(C)CCN(Cc1ccc(Cl)cc1)c1ccccn1 [Chloropyramine hydrochloride] (10 µM) 0
O=C(Nc1ccc(F)cc1F)[C@H](NC(=S)Nc1cc(C(F)(F)F)cc(C(F)(F)F)c1)c1ccccc1 (2.5 µM) 0
Cc1ccc(Nc2cc(-c3cccc(N4C(=O)c5ccccc5C4=O)c3)ncn2)cc1NS(C)(=O)=O (10 µM) 0
CC(C)(C)c1ccc(S(=O)(=O)Nc2ccc(-n3ccnc3)cc2)cc1 (10 µM) 0
CCc1cc(O)c(F)cc1-c1ccc2c(-c3nc4c([nH]3)CN(C3CCN(C)CC3)CC4)n[nH]c2c1 [JAK-IN-5 (hydrochloride)] (2 µM) 0
CC1=C2C(=O)O[C@@H](c3ccoc3)[C@]2(C)CCC1 [Fraxinellone] (10 µM) 0
COc1cc(C(N)=O)nc(-c2cccc(C#C[C@]3(O)CCN(C)C3=O)c2)c1 (10 µM) 0
COc1ncc(-c2nc(N3CCOCC3)nc3c(CN4CCC(C(C)(C)O)CC4)cc(F)cc23)cc1NS(C)(=O)=O [Linperlisib] (10 µM) 0
Fc1ccc(-c2nc(-c3ccccc3F)[nH]c2-c2ccncc2)cc1 (2.5 µM) 0

Gathered by group, the compounds so far containing a thiophene ring, fused or not (two)
kinase-Nluc reporter destabilization hit call, inactive:
Cc1c(CN2CCN(S(C)(=O)=O)CC2)sc2c(N3CCOCC3)nc(-c3cnc(N)nc3)nc12 (2.5 µM) 0
O=C(NCCCNc1nc(Nc2cccc(NC(=O)N3CCCC3)c2)ncc1I)c1cccs1 (2.5 µM) 0
